PubChem BioAssay AID1347131 (National Center for Advancing Translational Sciences (NCATS), 2019)
The campaign covered roughly 410,000 compounds. About 2,000 (0.49%) were called active. All entries are inconclusive by the source's own rule. Clear calls are listed elsewhere. Calls come from the whole dose curve; tested in HEK293 reporter line.

Assay: qHTS Assay for Foot and Mouth Disease Virus Antivirals: Primary Screen against the MLPCN compound library; note: nearly all actives have a fitted effect of over 55% in size
Conditions: FMDV antiviral cell-based qHTS
Potency is the fitted concentration of half-maximal effect.

Row | SMILES | Potency
1 | COc1cccc(C(=O)N(c2cc(C)cc(C)c2)C2CCN(C(=O)OC(C)(C)C)CC2)c1 | inconclusive: 10 µM
